Reference: the supplement of paper PMC11006884
Only a part is listed here, and it is no random draw. The data scatter; read single values as rough.

Chains of the proteins cited; added tags and fusions are not shown. Lines headed by an entry give the natural chain unless they say otherwise; changes in a name come on top.
UniProt P62633: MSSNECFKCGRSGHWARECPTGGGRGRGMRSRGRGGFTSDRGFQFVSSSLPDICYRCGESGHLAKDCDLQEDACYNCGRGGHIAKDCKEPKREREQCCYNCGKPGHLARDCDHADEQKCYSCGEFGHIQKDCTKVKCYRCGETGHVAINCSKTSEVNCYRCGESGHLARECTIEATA
UniProt P68363, whole entry, looked up: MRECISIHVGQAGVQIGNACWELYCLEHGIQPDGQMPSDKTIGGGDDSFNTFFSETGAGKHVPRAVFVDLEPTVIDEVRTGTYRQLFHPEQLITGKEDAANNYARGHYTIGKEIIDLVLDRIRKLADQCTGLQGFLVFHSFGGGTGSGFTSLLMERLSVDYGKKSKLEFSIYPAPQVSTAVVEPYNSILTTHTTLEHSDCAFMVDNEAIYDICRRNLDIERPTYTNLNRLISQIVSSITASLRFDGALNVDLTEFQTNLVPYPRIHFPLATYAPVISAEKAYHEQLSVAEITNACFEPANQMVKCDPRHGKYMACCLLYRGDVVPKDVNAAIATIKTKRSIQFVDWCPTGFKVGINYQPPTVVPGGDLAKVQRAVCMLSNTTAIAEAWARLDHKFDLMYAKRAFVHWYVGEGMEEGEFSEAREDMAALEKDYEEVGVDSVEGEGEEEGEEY
UniProt P78527, whole entry, looked up: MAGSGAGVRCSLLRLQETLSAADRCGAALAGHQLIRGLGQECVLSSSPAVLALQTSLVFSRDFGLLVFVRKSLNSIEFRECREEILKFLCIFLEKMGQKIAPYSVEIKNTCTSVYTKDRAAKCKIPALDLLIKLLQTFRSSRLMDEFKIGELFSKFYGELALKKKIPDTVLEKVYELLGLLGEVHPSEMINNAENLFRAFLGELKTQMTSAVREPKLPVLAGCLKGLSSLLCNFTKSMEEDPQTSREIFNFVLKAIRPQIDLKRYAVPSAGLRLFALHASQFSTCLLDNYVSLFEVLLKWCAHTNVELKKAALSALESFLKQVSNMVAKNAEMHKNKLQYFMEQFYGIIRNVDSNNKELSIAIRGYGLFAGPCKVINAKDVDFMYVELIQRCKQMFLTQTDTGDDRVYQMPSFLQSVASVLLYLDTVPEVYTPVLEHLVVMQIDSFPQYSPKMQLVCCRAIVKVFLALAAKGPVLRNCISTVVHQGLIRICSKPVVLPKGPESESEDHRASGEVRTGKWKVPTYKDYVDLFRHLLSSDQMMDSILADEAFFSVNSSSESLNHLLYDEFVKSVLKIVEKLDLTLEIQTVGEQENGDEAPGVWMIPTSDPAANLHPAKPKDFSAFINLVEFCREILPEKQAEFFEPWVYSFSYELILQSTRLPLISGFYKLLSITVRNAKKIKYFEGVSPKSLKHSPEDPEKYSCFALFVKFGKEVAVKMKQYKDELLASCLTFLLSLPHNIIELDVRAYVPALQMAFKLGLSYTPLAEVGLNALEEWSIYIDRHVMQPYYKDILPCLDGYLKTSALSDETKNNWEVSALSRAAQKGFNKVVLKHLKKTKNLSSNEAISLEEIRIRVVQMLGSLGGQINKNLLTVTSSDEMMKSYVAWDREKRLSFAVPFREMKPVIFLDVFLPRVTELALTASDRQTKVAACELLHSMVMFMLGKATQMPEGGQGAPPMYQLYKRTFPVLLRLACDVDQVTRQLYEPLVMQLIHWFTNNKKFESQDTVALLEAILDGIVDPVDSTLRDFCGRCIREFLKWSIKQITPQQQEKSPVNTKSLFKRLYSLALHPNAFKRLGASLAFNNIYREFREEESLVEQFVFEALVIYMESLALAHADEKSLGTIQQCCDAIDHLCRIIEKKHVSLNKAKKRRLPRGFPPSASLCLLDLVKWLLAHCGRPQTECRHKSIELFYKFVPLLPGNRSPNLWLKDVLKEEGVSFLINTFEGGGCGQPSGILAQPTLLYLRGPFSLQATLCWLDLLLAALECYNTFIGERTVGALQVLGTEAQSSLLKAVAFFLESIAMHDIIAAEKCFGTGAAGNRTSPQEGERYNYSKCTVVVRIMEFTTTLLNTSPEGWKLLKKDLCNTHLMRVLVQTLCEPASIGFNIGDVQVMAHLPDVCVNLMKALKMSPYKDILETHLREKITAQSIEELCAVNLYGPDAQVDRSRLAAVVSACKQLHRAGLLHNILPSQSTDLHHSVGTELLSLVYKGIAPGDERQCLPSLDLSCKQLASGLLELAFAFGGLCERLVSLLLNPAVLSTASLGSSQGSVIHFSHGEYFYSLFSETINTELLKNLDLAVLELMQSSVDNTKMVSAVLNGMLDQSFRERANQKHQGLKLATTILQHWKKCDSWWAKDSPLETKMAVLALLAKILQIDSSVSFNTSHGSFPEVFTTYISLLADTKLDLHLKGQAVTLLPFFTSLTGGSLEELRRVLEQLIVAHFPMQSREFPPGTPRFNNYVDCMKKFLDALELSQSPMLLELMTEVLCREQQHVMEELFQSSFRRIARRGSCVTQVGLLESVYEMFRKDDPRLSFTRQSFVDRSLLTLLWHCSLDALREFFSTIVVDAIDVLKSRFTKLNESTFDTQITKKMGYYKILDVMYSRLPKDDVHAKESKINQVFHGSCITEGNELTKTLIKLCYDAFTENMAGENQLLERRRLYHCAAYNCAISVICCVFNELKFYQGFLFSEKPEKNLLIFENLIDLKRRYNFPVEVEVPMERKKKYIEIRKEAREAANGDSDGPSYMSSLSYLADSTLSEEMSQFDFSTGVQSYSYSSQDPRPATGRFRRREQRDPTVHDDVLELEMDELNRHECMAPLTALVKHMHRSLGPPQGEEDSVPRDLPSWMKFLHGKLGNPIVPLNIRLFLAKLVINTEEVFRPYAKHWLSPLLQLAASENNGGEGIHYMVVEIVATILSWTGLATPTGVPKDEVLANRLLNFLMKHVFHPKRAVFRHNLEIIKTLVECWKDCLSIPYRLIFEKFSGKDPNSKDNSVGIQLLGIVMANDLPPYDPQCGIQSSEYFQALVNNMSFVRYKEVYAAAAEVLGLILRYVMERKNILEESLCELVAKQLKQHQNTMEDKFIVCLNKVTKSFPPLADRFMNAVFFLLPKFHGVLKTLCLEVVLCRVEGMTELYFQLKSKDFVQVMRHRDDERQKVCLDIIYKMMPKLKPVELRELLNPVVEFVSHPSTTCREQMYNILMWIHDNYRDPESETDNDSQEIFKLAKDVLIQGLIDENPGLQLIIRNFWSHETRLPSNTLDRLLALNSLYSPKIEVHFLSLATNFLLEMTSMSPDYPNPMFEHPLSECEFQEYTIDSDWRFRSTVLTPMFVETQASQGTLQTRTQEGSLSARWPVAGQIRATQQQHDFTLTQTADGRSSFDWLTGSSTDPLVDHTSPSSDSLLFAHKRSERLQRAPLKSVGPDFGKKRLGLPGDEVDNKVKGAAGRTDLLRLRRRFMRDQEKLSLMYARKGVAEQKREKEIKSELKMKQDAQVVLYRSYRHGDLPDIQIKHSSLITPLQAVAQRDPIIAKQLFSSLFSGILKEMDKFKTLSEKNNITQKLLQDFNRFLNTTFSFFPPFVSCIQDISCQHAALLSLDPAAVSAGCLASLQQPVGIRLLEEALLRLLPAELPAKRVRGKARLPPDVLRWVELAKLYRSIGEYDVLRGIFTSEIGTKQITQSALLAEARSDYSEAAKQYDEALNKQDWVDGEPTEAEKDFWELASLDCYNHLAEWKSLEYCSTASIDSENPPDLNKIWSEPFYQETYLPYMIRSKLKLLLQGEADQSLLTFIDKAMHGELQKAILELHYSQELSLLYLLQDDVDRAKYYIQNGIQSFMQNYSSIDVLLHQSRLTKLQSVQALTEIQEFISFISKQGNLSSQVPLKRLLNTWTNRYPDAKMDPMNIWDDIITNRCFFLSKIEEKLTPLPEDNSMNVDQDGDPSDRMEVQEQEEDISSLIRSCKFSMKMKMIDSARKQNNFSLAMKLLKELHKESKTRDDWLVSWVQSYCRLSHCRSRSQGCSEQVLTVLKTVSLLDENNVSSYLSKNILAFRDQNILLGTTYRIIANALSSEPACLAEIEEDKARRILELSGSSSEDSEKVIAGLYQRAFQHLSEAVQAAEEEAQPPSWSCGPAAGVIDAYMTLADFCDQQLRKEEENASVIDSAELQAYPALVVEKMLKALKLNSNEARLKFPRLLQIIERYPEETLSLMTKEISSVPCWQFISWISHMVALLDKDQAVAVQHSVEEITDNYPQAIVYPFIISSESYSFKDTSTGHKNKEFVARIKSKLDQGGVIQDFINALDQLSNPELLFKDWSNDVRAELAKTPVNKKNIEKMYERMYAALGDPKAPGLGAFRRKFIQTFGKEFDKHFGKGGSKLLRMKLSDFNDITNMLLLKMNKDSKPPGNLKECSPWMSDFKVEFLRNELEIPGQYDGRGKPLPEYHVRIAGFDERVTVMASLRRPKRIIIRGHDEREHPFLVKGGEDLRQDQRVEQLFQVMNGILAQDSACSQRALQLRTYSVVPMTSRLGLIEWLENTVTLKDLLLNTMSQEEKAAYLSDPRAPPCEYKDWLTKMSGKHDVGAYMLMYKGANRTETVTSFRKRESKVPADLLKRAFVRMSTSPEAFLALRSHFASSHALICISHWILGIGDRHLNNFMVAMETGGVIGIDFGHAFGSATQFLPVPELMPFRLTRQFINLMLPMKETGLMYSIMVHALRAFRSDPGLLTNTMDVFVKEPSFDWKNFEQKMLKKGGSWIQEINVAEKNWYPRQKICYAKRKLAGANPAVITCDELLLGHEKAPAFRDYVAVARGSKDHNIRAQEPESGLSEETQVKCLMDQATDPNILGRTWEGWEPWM
UniProt Q01581: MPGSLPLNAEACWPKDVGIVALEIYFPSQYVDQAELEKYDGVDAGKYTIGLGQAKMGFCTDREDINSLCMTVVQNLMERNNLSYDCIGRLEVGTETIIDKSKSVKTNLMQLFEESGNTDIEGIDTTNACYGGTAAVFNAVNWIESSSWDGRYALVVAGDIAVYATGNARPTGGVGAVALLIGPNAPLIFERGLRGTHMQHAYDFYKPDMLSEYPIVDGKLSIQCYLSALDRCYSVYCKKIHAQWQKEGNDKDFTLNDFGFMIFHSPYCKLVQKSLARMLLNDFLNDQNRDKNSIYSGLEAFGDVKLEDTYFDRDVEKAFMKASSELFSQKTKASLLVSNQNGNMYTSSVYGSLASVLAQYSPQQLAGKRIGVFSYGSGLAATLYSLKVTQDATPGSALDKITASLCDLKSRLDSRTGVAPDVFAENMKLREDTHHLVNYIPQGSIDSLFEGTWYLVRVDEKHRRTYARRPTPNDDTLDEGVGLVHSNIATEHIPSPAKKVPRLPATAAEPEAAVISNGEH
UniProt Q00839, whole entry, looked up: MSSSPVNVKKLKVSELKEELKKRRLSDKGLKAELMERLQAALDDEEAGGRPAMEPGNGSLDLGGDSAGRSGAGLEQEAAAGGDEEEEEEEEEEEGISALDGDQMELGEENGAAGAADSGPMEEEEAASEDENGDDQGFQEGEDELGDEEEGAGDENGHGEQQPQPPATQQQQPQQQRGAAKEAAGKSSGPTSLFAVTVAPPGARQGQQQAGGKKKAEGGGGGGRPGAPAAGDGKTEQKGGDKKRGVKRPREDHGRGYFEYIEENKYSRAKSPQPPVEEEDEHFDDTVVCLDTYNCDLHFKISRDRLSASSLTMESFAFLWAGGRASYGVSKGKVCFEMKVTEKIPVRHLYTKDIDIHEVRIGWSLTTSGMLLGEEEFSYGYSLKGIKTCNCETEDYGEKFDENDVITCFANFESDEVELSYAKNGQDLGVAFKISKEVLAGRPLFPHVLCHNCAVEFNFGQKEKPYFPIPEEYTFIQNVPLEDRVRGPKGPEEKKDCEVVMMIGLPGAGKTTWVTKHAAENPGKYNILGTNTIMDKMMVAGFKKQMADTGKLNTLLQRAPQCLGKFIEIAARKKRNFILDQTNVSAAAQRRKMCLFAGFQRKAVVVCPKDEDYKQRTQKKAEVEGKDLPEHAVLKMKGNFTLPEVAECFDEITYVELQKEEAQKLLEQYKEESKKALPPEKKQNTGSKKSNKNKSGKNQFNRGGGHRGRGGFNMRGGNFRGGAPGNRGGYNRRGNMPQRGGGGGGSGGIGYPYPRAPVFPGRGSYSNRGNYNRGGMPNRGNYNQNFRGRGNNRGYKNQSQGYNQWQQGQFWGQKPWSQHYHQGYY
UniProt P86790: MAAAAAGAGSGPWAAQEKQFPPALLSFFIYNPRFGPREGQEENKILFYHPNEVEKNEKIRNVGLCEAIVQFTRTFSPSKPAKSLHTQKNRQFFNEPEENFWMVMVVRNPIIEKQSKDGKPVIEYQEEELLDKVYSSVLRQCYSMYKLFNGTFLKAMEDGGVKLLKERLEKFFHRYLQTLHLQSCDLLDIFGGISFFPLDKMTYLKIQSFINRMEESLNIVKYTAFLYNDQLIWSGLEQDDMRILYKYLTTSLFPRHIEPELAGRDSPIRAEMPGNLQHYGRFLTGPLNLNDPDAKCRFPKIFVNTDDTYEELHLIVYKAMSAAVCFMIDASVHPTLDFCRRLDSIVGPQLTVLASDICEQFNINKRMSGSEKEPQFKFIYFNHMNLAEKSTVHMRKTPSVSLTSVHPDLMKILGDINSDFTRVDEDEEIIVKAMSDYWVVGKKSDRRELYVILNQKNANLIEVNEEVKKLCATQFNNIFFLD

Each target was assayed with COC(=O)/C=C/c1ccccc1 [methyl cinnamate] (assay: log2 ratio of iodoacetamide-alkyne labeling of the cysteine site, DMSO over compound (competition); higher = stronger covalent engagement of the cysteine by the compound, active = 1 or more). Details: 500 µM; treatment time 1 h; system: HEK293T cell lysate.
In short: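 The log2 competition ratio per cysteine is defined as mean reporter intensity in control channels over mean reporter intensity in compound channels. Lysate from HEK293T cells (2 mg/mL) received electrophile (500 µM) or vehicle for 1 h at ambient temperature, followed by iodoacetamide alkyne for 1 h. Samples were clicked to sCIP-TMT reagents, pooled, trypsin-digested overnight at 37 °C, streptavidin-enriched, acid-eluted and run on Orbitrap Eclipse LC-MS/MS with FAIMS, with quantification in FragPipe. Three replicates with duplicate channels were used, and any cysteine quantified in only one replicate was excluded.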

log2 ratio of iodoacetamide-alkyne labeling, inactive:
CNBP C158 (UniProt P62633) 0.0627
CLTC C736 (UniProt Q00610) 0.109
UniProt P68363_C316 0.0878
UniProt P78527_C4106 0.297
CSNK2B C114 (UniProt P67870) -0.156
UniProt Q02040_C542 0.405
XPC C60 (UniProt Q01831) 0.242
UniProt P68363_C20 0.00474
UniProt P63241_C73 -0.146
EEF1A1 C363 (UniProt P68104) 0.0273
UniProt P78527_C1229 -0.356
UniProt P78527_C25 0.166
MRPS34 C93 (UniProt P82930) 0.293
UniProt P68363_C347 0.166
UniProt P83731_C6 0.243
HMGCS1 C224 (UniProt Q01581) 0.11
MRPS6 C105 (UniProt P82932) 0.231
HNRNPU C453 (UniProt Q00839) -0.071
UniProt P62701_C41 -0.0895
FOXK1 C439 (UniProt P85037) 0.188
PFKP C112 (UniProt Q01813) 0.197
XIAP C202 (UniProt P98170) 0.121
CNBP C111 (UniProt P62633) 0.0375
XPC C224 (UniProt Q01831) 0.0828
UniProt P78527_C3420 0.29
KIF23 C42 (UniProt Q02241) -0.0193
REEP5 C18 (UniProt Q00765) 0.2
P86790_C471 (UniProt P86791+P86790) 0.177
UniProt P78527_C1312 0.142
CLTC C1205 (UniProt Q00610) -0.632
UniProt P63244_C207 0.0966
UniProt P62910_C96 0.211
UniProt P62834_C141 0.0632
SORD C130 (UniProt Q00796) 0.014
CNBP C77 (UniProt P62633) 0.0293
UniProt P78527_C703 0.182
UniProt P63241_C129 -0.477
UniProt P62701_C181 0.0942

Looked up one by one from the entries so far (2):
log2 ratio of iodoacetamide-alkyne labeling, inactive:
REEP5 C18 (UniProt Q00765) 0.2
MRPS34 C93 (UniProt P82930) 0.293
